Data source: PubChem BioAssay AID1259405 (NCATS, 2018)
Test: 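Knock-downs that lift recombinant protein yield in hamster ovary cells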 (primary screen). Cell system: Chinese hamster CHO-K1 ovary cells with stable secreted eGFP expression. Reagent: single siRNA against mouse genes, 0.8 pmol siRNA per well (2 µl of 400 nM stock). Duration: 3 days. Measured: 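Per-well intracellular GFP measured by laser scanning cytometry, plus viability from ATP luminescence, each relative to plate median of non-targeting control wells, in %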. Reading the numbers: GFP, % of control: higher = more GFP per well, higher productivity; viability (ATP), % of control: higher = more viable cells (more ATP). Active means: 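a knock-down is called active if GFP reaches 120% or more of non-targeting control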.
The whole screen tested about 50,000 reagents; this is a random part of them. About 4,000 of all reagents (8%) count as active. 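Mouse siRNA library applied to hamster cells; one well for each siRNA.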 Unmarked entries are inactive. Reagents against one gene are numbered here.

gene | reagent | GFP, % of control | viability (ATP), % of control
Serpinb1c | 1 | 77.7 | 57.9
Serpinb1c | 2 | 28.8 | 16.3
Serpinb1c | 3 | 86.2 | 98.6
Dsg4 | 1 | 92.3 | 98.9
Dsg4 | 2 | 94.4 | 81.8
H2-M11 | 1 | 57.2 | 50.4
H2-M11 | 2 | 96.2 | 81.2
H2-M11 | 3 | 73 | 56.9
Crppa | 1 | 69.8 | 84.6
Crppa | 2 | 79.2 | 43.7
Crppa | 3 | 75.1 | 89.5
Cdkn2d | 1 | 89.1 | 95
Cdkn2d | 2 | 99.1 | 90.5
Or5a3 | 1 | 83.5 | 45.4
Or5a3 | 2 | 75.3 | 72.1
Or5a3 | 3 | 83.1 | 47.2
Tmem47 | 1 | 54.4 | 66.5
Tmem47 | 2 | 57.9 | 69.9
Tmem47 | 3 | 78.4 | 101
Vmn1r233 | 1 | 88 | 76.1
Vmn1r233 | 2 | 49.7 | 68.3
Vmn1r233 | 3 | 37.4 | 51.1
Tmem178b | 1 | 50.7 | 62.4
Tmem178b | 2 | 93.9 | 81
Tmem178b | 3 | 103 | 102
Arhgef40 | 1 | 143 (active) | 80.9
Arhgef40 | 2 | 90.9 | 82.7
Arhgef40 | 3 | 70.8 | 61.8
Utrn | 1 | 36.5 | 40.5
Utrn | 2 | 138 (active) | 111
4931440P22Rik | 1 | 76.6 | 80
4931440P22Rik | 2 | 90.5 | 85.1
4931440P22Rik | 3 | 111 | 89.6
Rnf17 | 1 | 91.3 | 79.5
Rnf17 | 2 | 75.4 | 67.8
Rnf17 | 3 | 61.2 | 85.6
Gtf2b | 1 | 106 | 71.1
Gtf2b | 2 | 108 | 88
Dok3 | 1 | 67.3 | 78.7
Dok3 | 2 | 99.6 | 65.1
Dok3 | 3 | 32.2 | 44.4
Hoxc4 | 1 | 97.7 | 79.1
Hoxc4 | 2 | 47.2 | 46.7
Hoxc4 | 3 | 103 | 99.5
Ankmy1 | 1 | 89.9 | 104
Ankmy1 | 2 | 25.5 | 47.3
Ankmy1 | 3 | 76.8 | 84.6
Psma2 | 1 | 13.8 | 4.49
Psma2 | 2 | 68.9 | 54.8
Psma2 | 3 | 54.9 | 68.1
Mcl1 | 1 | 87.9 | 90.6
Mcl1 | 2 | 27.8 | 51.5
Mcl1 | 3 | 45.2 | 101
Dtd1 | 1 | 69.3 | 79.5
Dtd1 | 2 | 76.4 | 81.1
Efcc1 | 1 | 72.9 | 79.5
Efcc1 | 2 | 59.7 | 70.2
Efcc1 | 3 | 77.1 | 68.7
Cmtr1 | 1 | 91.5 | 82.2
Cmtr1 | 2 | 79.3 | 86.6
Cmtr1 | 3 | 81.9 | 42.5
Slc16a1 | 1 | 85.9 | 61
Slc16a1 | 2 | 54.7 | 71.7
Slc16a1 | 3 | 70.1 | 78.5
Sfrp4 | 1 | 111 | 88.5
Sfrp4 | 2 | 74.2 | 53.4
Sfrp4 | 3 | 51.8 | 53
Med29 | 1 | 68.2 | 70.1
Med29 | 2 | 81.8 | 71.8
Med29 | 3 | 92.9 | 86.6
Or5d35 | 1 | 85 | 41
Or5d35 | 2 | 57.9 | 80.9
Or5d35 | 3 | 110 | 61.4
Tbkbp1 | 1 | 107 | 90.3
Tbkbp1 | 2 | 28.9 | 22.2
Tbkbp1 | 3 | 104 | 107
Cdc42ep2 | 1 | 78.8 | 89.6
Cdc42ep2 | 2 | 92.3 | 84.2
Cdc42ep2 | 3 | 93.6 | 102
Pklr | 1 | 84.5 | 79.5
Mri1 | 1 | 100 | 80.5
Mri1 | 2 | 40.4 | 47.2
Mri1 | 3 | 57.8 | 57.8
Nptxr | 1 | 78.4 | 140
Nptxr | 2 | 83.2 | 82.6

Records listed so far whose gene name starts with V or v:
gene | reagent | GFP, % of control | viability (ATP), % of control
Vmn1r233 | 1 | 88 | 76.1
Vmn1r233 | 2 | 49.7 | 68.3
Vmn1r233 | 3 | 37.4 | 51.1
